Reference: doi:10.1101/2024.07.25.605061
These are yes or no findings as the source states them, for the method shown. Binding seen in cells or lysates may run through a third protein. Here binding means that the protein was enriched with, or labelled near, the bait; the list need not be complete. Where a sequence is shown, tags or fusion partners need not be part of it.

T1: EML2-FLAG (Arabidopsis thaliana) (UniProt Q9FG29)
T1 sequence: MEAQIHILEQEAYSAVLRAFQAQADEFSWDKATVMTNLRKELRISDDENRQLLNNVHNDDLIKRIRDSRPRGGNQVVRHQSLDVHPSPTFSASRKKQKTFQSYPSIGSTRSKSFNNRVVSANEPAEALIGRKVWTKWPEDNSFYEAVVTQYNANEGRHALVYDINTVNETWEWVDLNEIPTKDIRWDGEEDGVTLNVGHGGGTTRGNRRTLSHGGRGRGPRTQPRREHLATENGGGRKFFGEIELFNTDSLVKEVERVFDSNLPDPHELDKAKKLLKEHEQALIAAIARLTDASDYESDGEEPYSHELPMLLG

T2: GTE4-FLAG (Arabidopsis thaliana) (UniProt Q9LNC4)
T2 sequence: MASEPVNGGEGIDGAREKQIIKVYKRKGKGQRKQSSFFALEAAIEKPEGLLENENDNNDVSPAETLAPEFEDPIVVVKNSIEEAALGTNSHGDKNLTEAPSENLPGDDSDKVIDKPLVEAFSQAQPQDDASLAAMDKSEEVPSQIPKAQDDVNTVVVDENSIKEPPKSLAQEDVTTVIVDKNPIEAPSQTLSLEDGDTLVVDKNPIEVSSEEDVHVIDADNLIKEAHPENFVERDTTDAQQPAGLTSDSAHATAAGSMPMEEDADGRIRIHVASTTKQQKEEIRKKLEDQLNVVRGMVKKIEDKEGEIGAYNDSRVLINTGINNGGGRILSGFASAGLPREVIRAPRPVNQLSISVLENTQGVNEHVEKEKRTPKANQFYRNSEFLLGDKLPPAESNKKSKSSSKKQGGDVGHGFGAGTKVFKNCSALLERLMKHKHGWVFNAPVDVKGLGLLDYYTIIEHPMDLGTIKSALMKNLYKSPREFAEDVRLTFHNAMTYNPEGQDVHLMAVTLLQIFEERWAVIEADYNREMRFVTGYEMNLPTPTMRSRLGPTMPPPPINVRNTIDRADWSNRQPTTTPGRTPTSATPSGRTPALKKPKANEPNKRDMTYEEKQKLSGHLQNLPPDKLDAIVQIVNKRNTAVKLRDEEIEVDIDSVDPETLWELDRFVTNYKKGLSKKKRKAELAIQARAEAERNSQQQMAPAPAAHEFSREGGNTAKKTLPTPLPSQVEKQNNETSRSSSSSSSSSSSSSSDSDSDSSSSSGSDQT


These binders were tested against T1, EML2-FLAG (Arabidopsis thaliana) (assay: affinity purification with mass spectrometry).

| Binder | binding |
| --- | --- |
| GTE7 (endogenous) (protein, UniProt Q7Y214 1-590) MAPAVFATLNEPSYQEQCGAVFMRKFTNQSVTENTNNLPLFNPNPNPNFERSNSSKQCDDSSEFGSYATFNLAGYTSSQLRELKKRFTSELKQIRILRERIESGTFETQQGYTIPEVPAVRSAPLNNFTGEKNDLGPKKKKQKKNVSGLKRSNQFGPSDPESEKLLAGMLNTCSQILVKLMKHKWAWVFNTPVDVVGLGLHDYHQVVKKPMDLGTVKLNLDKGFYVSPIDFATDVRLTFDNAMTYNPKGQDVYFMADKLLDHFDGMFNPAFKKFEAQQLKLTGSSSRPEPDFKPDFKQRQWNQNPPMVANPRKGTEQISIAKKLDSVKPPQPTLPPQLVEPSRVQSPSPPPPPPVIQPELPQPQPPPPQLEIEVEAPPDVSEVSKGRKGKLPKPKAKDPNKRLMTMEEKSKLGMNLQDLPPEKLGQLLQILRKRNGHLAQDGDEIELDIEAVDNETLWELDRFVTNYKKMASKIKRQGFIRNVSTPPRNMASVAEMGSAEKRTRRGDAGEEDVDIGEDIPIEDYPSVEIERDGTAVAAAASSGSSSSGSSSSSGGSSSSSDSGSGGSSSGSDSDADSVQSPFVEAKEAQC | binds |
| GTE9 (endogenous) (protein, UniProt Q93YS6 1-688) MTERNGGFPGDYCFEAPGGDYDEGSDSPRVSEGSNCSKRKVGETFGVSKMVLPLSGLSSSDRKELIRRLRQELEQIRVFQKNFELSRTVALTSSSASGLTRVKSFGMSRCSTGPGKTVNPISAASKPTPVTTAVMLLMKQCEALLKRLMSHQYGWVFNTPVDVVKLNILDYFNVIEHPMDLGTVKNKLTSGTYSCPSEFAADVRLTFSNAMTYNPPGNDVYVMADTLRKFFEVRWKTLEKKLSGTKVHTEPSNLDAHKEKHIVIPVPMAKKRKTTAVDCENVVDPAKRVMTDEDRLKLGKDLESLTEFPAQLINFLRDHNSNEGGIGDDEIEIDINDLSDHALFQLRDLLDEHLREIQNKKSSVEPCEIELLHGSVPGNSSMQHCDGSELDDEVVDIGENEHPTSSISPVTIEKDLVLGNSNGNSLGSVSGDPKMSSLPRASKGLGTIDLEPMLDGATSASPTRGSSVGGLDQLESASPEKISSVEADCQQDGNSAQNEKQLPPEKSYRAAILKNRFADIILKAREKPLNQNDTRDPEKLQREREELELQKKKEKARLQAEAKAAEEARRKAEAQAAAEAAAEAKRKLELEREAARQALMEMEQSVELNENAKFLEDLELLKTVDTDHLTNTIEEEDGPDVGLRSFSFGGSNPLEQLGLFMKQDEDEEEADPLTSPAPEIDIEEGEID | binds |
| GTE8 (endogenous) (protein, UniProt Q9LK27 1-813) MVESAAFPGGYYRNTFEAPEESEGSGSSAQIDTEVTASENSSTPARKCIMLNSNDEDPYGVQRQVISLYNMSQSERKDLIYRLKLELEQTKIVLKNAELQRMNPAAVSSTSDRVGFSTGQKISSRVSNSKKPSDFAVGSGKKVRHQNGTSRGWNRGTSGKFESSKETMTSTPNITLMKQCDTLLRKLWSHPHSWVFQAPVDVVKLNIPDYLTTIKHPMDLGTVKKNLASGVYSSPHEFAADVRLTFTNAMTYNPPGHDVHIMGDILSKLFEARWKTIKKKLPPCSMQTLPAVTLEPNDERKAAISVPPAKKRKMASPVRESVPEPVKPLMTEVERHRLGRQLESLLDELPAHIIDFLKKHNSNGGEIAEDEIEIDIDVLSDEVLVTLRNLLDEYIQNKEAKQTNVEPCEIELINGSRPSNSSLQRGNEMADEYVDGNEPPISRSSSDSDSGSSEDQSDDAKPMVQGDSSKMPETANSEAQRDENTRIDDLFVGSQSTGALEQMDICSQQKLSSDESDGQHEGNILETPASSEKRYRAALLKNRFADIILKAREKPLPQNGIKGDPERLRKEREELVLQKKKEKARLQAEAEAAEDARRQAEAEAAAEAAAEAKRKRELEREAARQALLKMEKTVEINENSRFLEDLEMLSSSAPEQLPSSAEETSPERPLDALGSFNLRGSNPLEQLGLYMKQDDDEEEPEAPAVPKPDETSTERPLDALGSFKLGECNPLEQLGLYMKQDDGEEEEPEAPVVPKPNETSLERPVDAFGSFNLKGSNPLEQLGLYMKQDDDEEEPEAPAVPNLANDVEEGEID | binds |

Other lines, results leading:

| binding | Binder |
| --- | --- |
| binds | GTE11 (endogenous) (protein, UniProt Q93ZB7 1-620) MTVRNGGFPGDYNRNSFDSPGGCDDSPNASKDDETFGVPRIVLPLSDLSSSERRKWIHTLRQELEQLRSFQKSVGDLLPISKIVTSTPASNVSRPKSFGMSRCSTGPGKRVLPFTATKPEPVTTSTMLRMKQCESLLKRLMSQQHCWLFNTPVDVVKLNIPDYFTIIKHPMDLGTVKSKLTSGTYSSPSEFSADVRLTFRNAMTYNPSDNNVYRFADTLSKFFEVRWKTIEKKSSGTKSEPSNLATLAHKDIAIPEPVAKKRKMNAVKRNSLLEPAKRVMTDEDRVKLGRDLGSLTEFPVQIINFLRDHSSKEERSGDDEIEIDINDLSHDALFQLRDLFDEFLRENQKKDSNGEPCVLELLHGSGPGNSLTQHCDGSELEDEDVDIGNYEHPISHISTVRTEKDSVGGLNQMEDASRGKLSLIEGADGHQDGNSAPKEKELPPEKRYRAALLKNRFADIILKAQEITLNQNEKRDPETLQREKEELELQKKKEKARLQAEAKEAEEARRKAEAQEAKRKLELEREAARQALLEMEKSVEINENTRFLKDLELLKTVNTDQLRNLRDVGSESDGLAVFGFGGSNPLEQLGLFMKHEEDEDESDMLAFPDPGNEVEEGEID |
| binds | GTE10 (endogenous) (protein, UniProt Q9FGW9 1-1061) MGKARKHSRGRPSGFVPDYMQAVEPDEFVYSERMNSEASPPLKRRRFGLNGDNNGVSKEVLSLSKMSRSERKNLVHKLKMELQQVRDLSKKIASFSSDTVLLSPYNDHSCSDGPRRPPPENFATFVGSQGKKRPPVRSDKQRNKKGPSRLNVPTSYTVASVMKECETLLNRLWSHKSGWPFRTPVDPVMLNIPDYFNVIKHPMDLGTIRSRLCKGEYSSPLDFAADVRLTFSNSIAYNPPGNQFHTMAQGISKYFESGWKSIEKKIPMSKPPVIPLTSSASLESEIPFEVAPMRKKEAAMNDNKLRVEPAKLVMTDGEKKKLGQDLMALEEDFPQKIADLLREQSGSDGQSGEGEIEIDIEALSDEILFMVRKLLDDYLREKKKSMEKSEPCEMEIVHDSGFSNSPLQPSKGDLQIDEDVDIVGGNDPSVSSHPPLKIEKDAACRNNESSSSSSSSSESGSSSSDSDSCSSSGSETDSIKASKPTSREEKKQPGVGIDKKEDDSNSEKIVVNDSLNELDQLEHTVGEKSTTMDAVVLVPDEETAPPERQISPDSPDKRYRAAFLKNRFADTIMKAREKAFTKGEKGDPEKLRIEREEFEKRLREEKERLQAEAKAAEEARRKAKAEAAEKARREREQEREAARQALQKMEKTVEINEGIRFMEDLQMLRATGTEGDQLPTSMEVMSPKFSEDMLGLGSFKMESNSNPLEHLGLYMKMDEDEDEEEDPPHFSQRKVEDNPFDRSEKQEHSPHRVEGEDQLVSGNEEPVSQEAHDNGDQEDGKPINPNEIERQLENMPEQESGVGDKEEQETEVVDMRKQENEVVDMGVEEVHPLDRSEGRTLSPHRKEREDPRASGNEESVSEKAQDYENQRDEKINQSEREEQLENVLEQESSRDDDTGEQETEVVGVGKELSLDKSEGQTLSPHREEGENQLDCGNEELVSQKTQDNGNQEDEKSINKIEGEEQLANVPEQESRVTEKEEQETGVVDLGEQKSEVVEKGVEENEAVDNGEGVQGTEVSDKGGNETVVDGNGKVETEVVDKAGQKTDLVDQGEEDIDVEID |

These binders were tested against T2, GTE4-FLAG (Arabidopsis thaliana) (assay: affinity purification with mass spectrometry).

| binding | Binder |
| --- | --- |
| binds | EML3 (endogenous) (protein, UniProt F4K2F0 1-397) MDYRPSDSSGTDDDLPPSHQGRYQRNARPTGNGRPSVLNSAPLSRVHNEMETQIHLIEQEAYSSILRAFKAQSDAITWEKESLITELRKELRVSDEEHRELLSRVNADEMIRRIREWRKANSLQSSVPQLVHDAPSPAVSGSRKKQKTSQSIASLAMGPPSPSLHPSMQPSSSALRRGGPPPGPKTKKPKTSMQYPSTGIAGRPQAGALTNEPGESGSYDPLVGRKVWTKWPDDNQYYEAVITDYNPVEGRHALVYDINSANETWEWVNLKEISPGDIRWEGEDPGISRKGGHPGQGRGTKTMARGGPASNAGGRGRGSMRMQQPKTQNGIGKKALGEIEILHTETLLKEVEKVFGSVNPNPAEVEKAKRVLRDHELALMDAIAKLEEISDGESGNI |
